According to article PMC3446372:
These are yes or no findings as the source states them, for the method shown. Binding seen in cells or lysates may run through a third protein. Some entries that bind do so weakly or less than the wild type. For some assays here: Where a sequence is shown, tags or fusion partners need not be part of it.

Chains of the proteins cited; added tags and fusions are not shown.
UniProt P40763: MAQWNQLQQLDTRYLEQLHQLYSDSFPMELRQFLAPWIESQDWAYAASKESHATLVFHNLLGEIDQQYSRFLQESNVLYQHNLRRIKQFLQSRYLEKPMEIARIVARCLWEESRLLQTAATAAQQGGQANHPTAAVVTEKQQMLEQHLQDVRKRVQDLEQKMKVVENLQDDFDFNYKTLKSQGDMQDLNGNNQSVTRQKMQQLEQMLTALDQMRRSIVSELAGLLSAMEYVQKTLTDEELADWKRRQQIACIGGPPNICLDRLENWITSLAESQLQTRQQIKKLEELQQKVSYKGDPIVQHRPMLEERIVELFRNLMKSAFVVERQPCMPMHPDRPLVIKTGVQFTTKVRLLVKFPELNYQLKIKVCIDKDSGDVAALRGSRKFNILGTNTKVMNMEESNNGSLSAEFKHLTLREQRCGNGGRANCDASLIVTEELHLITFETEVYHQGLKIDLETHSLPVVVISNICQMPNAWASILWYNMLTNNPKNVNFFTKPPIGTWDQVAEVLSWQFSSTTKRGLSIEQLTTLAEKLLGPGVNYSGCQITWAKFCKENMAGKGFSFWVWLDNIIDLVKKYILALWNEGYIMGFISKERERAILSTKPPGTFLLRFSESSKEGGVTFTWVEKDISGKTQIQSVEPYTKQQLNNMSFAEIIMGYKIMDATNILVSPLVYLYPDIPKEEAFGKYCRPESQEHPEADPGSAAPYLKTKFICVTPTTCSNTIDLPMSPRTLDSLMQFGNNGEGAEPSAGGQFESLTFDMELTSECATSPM
UniProt P42227: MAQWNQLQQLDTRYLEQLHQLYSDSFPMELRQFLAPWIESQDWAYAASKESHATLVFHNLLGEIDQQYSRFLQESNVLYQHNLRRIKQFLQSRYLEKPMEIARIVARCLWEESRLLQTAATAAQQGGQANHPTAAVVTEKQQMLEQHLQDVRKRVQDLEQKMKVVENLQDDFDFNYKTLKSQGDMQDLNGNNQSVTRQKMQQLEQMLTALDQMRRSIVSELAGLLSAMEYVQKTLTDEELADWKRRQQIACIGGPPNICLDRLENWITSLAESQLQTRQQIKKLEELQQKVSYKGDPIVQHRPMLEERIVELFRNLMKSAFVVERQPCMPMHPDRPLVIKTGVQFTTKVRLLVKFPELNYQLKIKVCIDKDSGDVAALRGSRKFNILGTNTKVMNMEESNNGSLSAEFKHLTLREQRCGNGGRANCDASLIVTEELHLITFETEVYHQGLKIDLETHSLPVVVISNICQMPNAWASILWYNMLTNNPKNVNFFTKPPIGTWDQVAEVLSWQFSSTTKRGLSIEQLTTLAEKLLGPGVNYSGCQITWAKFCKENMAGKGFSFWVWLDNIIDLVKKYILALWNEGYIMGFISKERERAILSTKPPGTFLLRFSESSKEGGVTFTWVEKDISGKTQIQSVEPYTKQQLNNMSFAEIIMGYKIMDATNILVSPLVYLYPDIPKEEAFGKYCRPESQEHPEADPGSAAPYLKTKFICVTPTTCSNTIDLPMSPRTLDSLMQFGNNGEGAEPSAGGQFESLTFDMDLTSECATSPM

What was measured:
[1] = target: T1, Myc-PTPMeg2 (human) (UniProt P43378); assay: co-IP; HEK293T (293T) cells co-transfected with Myc-PTPMeg2 and Flag-tagged STAT; lysis buffer 20 mM Tris-Cl pH 7.6, 150 mM NaCl, 0.5% NP40; precipitated with anti-Flag or (reciprocal) anti-Myc antibody, 4°C; without or with IL-6 stimulation for 30 min
T1 sequence: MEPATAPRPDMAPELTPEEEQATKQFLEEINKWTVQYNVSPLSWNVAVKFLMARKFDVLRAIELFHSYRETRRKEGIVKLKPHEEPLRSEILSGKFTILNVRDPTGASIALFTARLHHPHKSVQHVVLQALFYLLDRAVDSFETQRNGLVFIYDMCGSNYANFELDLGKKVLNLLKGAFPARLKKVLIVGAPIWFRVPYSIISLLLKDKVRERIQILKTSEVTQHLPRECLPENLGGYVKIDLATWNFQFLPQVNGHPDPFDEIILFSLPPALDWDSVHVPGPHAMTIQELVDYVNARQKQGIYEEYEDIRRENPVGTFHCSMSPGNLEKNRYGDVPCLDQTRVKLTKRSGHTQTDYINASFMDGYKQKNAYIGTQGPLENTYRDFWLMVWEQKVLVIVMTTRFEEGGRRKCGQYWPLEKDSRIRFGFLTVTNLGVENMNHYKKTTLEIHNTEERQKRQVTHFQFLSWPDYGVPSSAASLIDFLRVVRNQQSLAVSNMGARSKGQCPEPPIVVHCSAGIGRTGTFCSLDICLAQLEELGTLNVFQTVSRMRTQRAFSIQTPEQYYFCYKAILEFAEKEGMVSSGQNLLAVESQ

[2] = target: GST-STAT3 (UniProt P40763); assay: pull-down; GST or GST-STAT3 fusion proteins mixed with Myc-PTPMeg2 prepared from cells; GST beads, washed by PBST buffer; only the target purified
[3] = target: Flag-STAT3 (UniProt P40763); assay: co-IP; HEK293T (293T) cells co-transfected with Myc-PTPMeg2 and Flag-tagged STAT; lysis buffer 20 mM Tris-Cl pH 7.6, 150 mM NaCl, 0.5% NP40; precipitated with anti-Flag or (reciprocal) anti-Myc antibody, 4°C; without or with IL-6 stimulation for 30 min
[4] = target: endogenous STAT3 (mouse brain tissue) (mouse (endogenous in mouse brain tissue)) (UniProt P42227); assay: co-IP; endogenous proteins; lysates from mouse brain tissue or MCF7 cells (without or with IL-6 for 30 min); anti-STAT3 antibody (C20) and anti-PTPMeg2 rabbit polyclonal antibody
[5] = target: endogenous STAT3 (MCF7 cells) (human (endogenous in MCF7)) (UniProt P40763); assay: as above

phosphorylated Flag-STAT3 (pSTAT3) (from UniProt P40763 1-770)
binding [1]: binds

B1: Myc-PTPMeg2 (enzyme, UniProt P43378 1-593)
chain: T1 sequence
binding [2]: binds
binding [3]: binds

B2: endogenous PTPMeg2 (mouse brain tissue) (enzyme, UniProt O35239 1-593)
chain: MEPATAPRPDMAPELTPEEEQATKQFLEEINKWTVQYNVSPLSWNVAVKFLMARKFDVLRAVELFHCYRETRRKEGIVKLKPHEEPLRSEILSGKFTILNVRDPTGASIALFTARLHHPHKSAQHVVLQALFYLLDRAVDSFETQRNGLVFIYDMCGSNYANFELDLGKKVLNLLKGAFPARLKKVLIVGAPIWFRVPYSIISLLLKDKVRERIQILKTSEVTQHLPRECLPENLGGYVKIDLATWNFQFLPQVNGHPDPFDEIILSSLPPALDWDSVHVPGPHAMTIQELVDYVNTRQKRGIYEEYEDIRRENPVGTFHCSMSPGNLEKNRYGDVPCLDQTRVKLTKRSGHTQTDYINASFMDGYKQKNAYIGTQGPLENTYRDFWLMVWEQKVLVIVMTTRFEEGGRRKCGQYWPLEKDSRIRFGFLTVTNLGVENMNHYKKTTLEIHNTEERQKRQVTHFQFLSWPDYGVPSSAASLIDFLRVVRNQQSMAVGNLGARSKGQCPEPPIVVHCSAGIGRTGTFCSLDICLAQLEELGTLNVFQTVSRMRTQRAFSIQTPEQYYFCYKAILEFAEREGMVPSGHSLLAMDGQ
binding [4]: binds

B3: endogenous PTPMeg2 (MCF7 cells) (enzyme, UniProt P43378 1-593)
chain: T1 sequence
binding [5]: binds
